Data published in the supplement of paper PMC12067093, “Discovery and optimisation of a covalent ligand for TRIM25 and its application to targeted protein ubiquitination” (Chemical Science, 2025).
This is one part of the list.

By UniProt entry, the sequences of proteins in these tests, tags left out. Where a name states a change or a piece, a line headed by the entry shows the natural chain unless it says otherwise.
UniProt Q9UQ80: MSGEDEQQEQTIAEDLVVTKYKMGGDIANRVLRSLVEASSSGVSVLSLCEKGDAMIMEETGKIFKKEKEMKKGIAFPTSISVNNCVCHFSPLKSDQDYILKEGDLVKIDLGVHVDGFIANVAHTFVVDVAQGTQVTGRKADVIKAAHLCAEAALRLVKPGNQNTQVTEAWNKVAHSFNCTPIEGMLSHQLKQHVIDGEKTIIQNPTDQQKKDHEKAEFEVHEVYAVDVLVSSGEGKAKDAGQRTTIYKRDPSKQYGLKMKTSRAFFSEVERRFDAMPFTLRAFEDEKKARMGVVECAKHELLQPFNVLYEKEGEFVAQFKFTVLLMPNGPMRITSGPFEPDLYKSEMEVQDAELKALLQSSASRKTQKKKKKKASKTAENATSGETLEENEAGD
UniProt O14841: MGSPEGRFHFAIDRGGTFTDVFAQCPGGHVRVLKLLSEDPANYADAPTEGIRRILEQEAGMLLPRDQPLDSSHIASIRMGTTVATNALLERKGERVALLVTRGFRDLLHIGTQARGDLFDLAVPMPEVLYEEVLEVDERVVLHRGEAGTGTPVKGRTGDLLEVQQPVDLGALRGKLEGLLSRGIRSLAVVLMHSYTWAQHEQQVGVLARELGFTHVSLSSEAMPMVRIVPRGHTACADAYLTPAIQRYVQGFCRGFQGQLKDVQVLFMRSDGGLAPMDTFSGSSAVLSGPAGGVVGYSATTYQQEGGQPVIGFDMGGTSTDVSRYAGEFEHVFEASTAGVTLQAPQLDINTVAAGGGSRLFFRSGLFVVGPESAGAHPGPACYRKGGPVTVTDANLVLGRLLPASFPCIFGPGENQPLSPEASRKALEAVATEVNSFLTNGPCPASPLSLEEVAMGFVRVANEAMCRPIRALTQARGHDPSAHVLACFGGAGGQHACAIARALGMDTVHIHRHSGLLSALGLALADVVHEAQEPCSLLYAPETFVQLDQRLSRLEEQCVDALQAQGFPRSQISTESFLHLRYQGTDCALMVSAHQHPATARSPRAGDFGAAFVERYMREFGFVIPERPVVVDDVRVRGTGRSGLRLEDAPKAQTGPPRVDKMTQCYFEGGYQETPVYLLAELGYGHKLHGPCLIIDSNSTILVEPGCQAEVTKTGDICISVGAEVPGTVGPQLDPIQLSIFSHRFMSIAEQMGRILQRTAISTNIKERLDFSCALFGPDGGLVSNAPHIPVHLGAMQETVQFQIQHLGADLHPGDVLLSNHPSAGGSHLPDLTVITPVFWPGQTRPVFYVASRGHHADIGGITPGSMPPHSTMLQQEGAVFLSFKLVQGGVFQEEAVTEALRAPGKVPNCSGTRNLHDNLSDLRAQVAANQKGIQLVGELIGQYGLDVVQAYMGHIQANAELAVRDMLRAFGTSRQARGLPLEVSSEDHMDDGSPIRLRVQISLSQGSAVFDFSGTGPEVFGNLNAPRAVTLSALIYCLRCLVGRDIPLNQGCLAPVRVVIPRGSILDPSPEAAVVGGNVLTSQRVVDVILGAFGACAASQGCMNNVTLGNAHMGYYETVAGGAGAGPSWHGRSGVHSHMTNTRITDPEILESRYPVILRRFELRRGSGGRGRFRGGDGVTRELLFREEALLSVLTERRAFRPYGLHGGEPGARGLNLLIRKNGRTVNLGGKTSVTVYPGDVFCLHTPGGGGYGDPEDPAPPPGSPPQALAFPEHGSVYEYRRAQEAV
UniProt Q96FW1, whole entry, looked up: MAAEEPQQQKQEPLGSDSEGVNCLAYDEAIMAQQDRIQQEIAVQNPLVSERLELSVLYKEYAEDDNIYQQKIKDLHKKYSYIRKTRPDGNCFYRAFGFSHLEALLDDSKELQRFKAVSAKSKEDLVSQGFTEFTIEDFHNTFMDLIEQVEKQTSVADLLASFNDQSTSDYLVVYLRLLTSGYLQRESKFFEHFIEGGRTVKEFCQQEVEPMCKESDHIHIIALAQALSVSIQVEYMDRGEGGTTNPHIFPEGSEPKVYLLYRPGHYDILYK
UniProt Q9NRP0: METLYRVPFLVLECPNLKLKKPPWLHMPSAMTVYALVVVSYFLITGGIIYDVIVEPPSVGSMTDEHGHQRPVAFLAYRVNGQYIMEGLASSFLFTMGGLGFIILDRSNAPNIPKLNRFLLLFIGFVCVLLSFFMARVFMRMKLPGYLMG
UniProt Q9UBD5: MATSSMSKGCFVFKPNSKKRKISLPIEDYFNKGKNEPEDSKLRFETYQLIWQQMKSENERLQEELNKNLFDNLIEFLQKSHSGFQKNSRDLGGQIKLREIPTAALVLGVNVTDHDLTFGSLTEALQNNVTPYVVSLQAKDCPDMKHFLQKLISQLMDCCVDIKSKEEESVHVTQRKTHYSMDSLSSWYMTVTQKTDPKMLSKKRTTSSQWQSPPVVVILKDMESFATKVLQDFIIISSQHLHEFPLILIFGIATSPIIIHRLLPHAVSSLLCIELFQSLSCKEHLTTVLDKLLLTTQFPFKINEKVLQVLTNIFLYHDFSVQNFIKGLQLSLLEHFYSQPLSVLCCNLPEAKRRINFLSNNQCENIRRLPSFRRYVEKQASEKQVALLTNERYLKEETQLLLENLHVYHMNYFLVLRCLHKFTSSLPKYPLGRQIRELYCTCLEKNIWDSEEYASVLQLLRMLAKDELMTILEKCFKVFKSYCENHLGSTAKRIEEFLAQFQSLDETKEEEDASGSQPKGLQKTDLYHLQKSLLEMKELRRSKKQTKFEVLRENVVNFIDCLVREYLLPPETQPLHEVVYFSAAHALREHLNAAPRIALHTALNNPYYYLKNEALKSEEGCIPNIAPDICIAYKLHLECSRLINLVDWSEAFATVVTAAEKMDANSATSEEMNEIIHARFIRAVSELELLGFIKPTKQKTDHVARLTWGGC
UniProt P43034: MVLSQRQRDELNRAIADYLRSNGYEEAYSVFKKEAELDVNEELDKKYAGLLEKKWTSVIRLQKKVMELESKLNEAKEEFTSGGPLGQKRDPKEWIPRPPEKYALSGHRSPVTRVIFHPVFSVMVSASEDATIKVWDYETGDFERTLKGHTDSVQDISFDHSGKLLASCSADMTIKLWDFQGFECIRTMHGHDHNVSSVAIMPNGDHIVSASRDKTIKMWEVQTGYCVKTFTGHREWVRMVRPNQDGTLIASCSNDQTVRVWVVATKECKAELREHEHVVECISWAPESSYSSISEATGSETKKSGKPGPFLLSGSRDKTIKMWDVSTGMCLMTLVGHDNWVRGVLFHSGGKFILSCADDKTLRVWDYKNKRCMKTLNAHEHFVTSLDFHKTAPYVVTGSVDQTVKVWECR
UniProt Q460N5, whole entry, looked up: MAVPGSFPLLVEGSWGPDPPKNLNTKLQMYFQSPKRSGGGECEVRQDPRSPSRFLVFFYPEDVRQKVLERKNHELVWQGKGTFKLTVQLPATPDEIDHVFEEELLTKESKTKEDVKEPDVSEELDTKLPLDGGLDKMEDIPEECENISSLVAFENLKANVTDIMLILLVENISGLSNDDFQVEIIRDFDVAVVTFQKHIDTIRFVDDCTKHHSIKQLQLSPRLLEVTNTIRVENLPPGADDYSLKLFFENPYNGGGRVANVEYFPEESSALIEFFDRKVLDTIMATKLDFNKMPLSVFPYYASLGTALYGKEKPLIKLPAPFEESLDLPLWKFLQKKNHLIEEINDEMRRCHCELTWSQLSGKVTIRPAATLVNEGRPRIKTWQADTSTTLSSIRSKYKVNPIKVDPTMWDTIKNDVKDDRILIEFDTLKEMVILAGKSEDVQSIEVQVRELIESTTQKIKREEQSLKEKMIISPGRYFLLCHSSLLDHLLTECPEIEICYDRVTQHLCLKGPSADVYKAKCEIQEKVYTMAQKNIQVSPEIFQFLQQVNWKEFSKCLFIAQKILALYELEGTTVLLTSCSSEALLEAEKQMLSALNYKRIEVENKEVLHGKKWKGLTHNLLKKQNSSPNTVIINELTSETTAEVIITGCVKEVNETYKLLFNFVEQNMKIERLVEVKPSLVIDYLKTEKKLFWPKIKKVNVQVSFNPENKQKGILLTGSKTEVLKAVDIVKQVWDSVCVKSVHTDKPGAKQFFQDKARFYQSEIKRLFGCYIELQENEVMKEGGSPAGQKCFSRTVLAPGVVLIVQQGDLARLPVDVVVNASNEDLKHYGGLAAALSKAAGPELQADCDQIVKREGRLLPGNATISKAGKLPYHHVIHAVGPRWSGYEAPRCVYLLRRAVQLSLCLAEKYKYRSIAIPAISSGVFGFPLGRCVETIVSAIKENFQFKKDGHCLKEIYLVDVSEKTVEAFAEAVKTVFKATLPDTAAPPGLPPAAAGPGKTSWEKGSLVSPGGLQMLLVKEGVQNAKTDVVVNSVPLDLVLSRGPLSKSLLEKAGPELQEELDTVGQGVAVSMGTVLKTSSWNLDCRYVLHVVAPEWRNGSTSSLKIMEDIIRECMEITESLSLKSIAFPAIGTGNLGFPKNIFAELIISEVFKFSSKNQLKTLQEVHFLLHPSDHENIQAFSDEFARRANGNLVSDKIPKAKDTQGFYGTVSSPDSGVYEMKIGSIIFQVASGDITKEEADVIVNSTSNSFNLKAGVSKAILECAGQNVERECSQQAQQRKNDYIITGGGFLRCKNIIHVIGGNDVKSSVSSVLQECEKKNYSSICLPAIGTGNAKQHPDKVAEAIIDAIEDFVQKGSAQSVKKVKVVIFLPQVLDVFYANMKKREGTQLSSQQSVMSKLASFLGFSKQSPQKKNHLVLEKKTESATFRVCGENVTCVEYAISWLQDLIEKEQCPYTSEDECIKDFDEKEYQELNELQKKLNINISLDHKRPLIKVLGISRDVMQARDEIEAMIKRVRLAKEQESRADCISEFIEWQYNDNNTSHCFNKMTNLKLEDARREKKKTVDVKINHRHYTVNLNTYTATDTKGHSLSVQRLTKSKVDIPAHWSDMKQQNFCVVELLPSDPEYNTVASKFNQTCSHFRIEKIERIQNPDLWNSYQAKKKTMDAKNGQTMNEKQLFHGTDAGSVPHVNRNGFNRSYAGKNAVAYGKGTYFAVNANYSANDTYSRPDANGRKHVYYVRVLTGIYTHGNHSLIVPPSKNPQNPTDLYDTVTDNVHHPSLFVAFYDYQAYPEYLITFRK
UniProt O96013: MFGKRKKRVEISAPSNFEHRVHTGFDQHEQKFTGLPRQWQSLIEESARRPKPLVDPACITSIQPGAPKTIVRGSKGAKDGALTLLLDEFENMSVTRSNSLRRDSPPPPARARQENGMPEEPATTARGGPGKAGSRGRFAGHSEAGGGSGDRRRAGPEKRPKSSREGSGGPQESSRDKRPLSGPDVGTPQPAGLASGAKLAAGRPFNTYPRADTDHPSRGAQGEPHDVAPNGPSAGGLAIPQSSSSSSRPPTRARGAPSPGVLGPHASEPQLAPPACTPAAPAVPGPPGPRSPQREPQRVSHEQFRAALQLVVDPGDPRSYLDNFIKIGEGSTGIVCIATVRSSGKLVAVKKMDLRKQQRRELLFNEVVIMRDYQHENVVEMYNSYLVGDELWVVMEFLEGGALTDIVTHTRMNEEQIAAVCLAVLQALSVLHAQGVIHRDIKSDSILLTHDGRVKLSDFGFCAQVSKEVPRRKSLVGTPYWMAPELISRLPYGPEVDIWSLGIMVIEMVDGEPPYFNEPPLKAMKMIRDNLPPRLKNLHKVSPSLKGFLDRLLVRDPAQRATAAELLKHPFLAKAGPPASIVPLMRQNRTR
UniProt Q9H1P3, whole entry, looked up: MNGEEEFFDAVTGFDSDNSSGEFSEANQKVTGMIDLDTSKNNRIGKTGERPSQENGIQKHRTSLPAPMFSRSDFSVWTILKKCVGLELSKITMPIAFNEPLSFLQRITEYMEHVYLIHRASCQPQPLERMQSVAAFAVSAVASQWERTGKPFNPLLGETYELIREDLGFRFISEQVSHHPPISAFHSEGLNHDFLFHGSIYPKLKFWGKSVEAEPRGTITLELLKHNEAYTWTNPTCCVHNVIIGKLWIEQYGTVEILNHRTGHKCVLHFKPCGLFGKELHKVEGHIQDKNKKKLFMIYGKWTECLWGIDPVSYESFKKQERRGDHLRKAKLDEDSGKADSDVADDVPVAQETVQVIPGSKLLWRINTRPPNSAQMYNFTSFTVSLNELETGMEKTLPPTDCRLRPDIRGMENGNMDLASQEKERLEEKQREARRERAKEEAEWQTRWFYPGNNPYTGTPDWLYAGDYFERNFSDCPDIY
UniProt Q96BN8, whole entry, looked up: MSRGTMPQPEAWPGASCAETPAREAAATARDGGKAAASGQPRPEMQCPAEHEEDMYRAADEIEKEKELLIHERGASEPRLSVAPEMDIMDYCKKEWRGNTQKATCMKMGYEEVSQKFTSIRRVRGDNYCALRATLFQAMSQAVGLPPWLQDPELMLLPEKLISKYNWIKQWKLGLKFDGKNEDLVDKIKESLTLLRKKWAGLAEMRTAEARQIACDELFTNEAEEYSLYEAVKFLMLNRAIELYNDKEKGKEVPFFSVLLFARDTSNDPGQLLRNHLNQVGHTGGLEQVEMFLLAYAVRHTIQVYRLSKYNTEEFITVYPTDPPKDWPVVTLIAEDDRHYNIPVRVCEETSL

Compound: Cc1cc(ccc1-c1ccccc1)C(=O)N1CCCN(CC1)C(=O)CCl [compound 10]
Assay: probe-labelled cysteine peptide fold change vs DMSO (competition) (log2 fold change); higher = less target engagement (more negative = stronger competition)
Conditions: THP-1, incubation time: 4 h
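Note: competitive profiling in live THP-1 cells: cysteine peptides tagged with an iodoacetamide desthiobiotin (IA-DTB) probe, intensity after compound treatment relative to DMSO-treated cells.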

| Target | probe-labelled cysteine peptide fold change (10 µM) | probe-labelled cysteine peptide fold change (50 µM) |
| --- | --- | --- |
| PA2G4_Q9UQ80_296_MGVVECAKHELLQPFNVLYEK (UniProt Q9UQ80) | -0.532 | -0.895 |
| OPHN1_O60890_24_CYEQELER (UniProt O60890) | 0.0551 | 0.338 |
| PARP12_Q9H0J9_276_DSSGSVSPNTLSQEEGDQICLYHIR (UniProt Q9H0J9) | -0.172 | -0.673 |
| PACS2_Q86VP3_880_HFPICIFGHSK (UniProt Q86VP3) | -0.181 | -0.0895 |
| OSBPL1A_Q9BXW6_769_LCALYGK (UniProt Q9BXW6) | -0.186 | -0.109 |
| OSBPL8_Q9BZF1_575_GEDYVMTMPYAHCK (UniProt Q9BZF1) | 0.0779 | 0.215 |
| OPA1_O60313_853_TALNHCNLCR (UniProt O60313) | -0.0933 | 0.00191 |
| OSBP_P22059_517_SLCEQVSHHPPAAAHHAESK (UniProt P22059) | -0.000272 | -0.00247 |
| OPLAH_O14841_253_YVQGFCR (UniProt O14841) | 0.036 | -0.112 |
| PARP10_Q53GL7_50_LGCGGVLTFR (UniProt Q53GL7) | -0.14 | -0.76 |
| PARP10_Q53GL7_983+1004_YDSAVDCICQPSIFVIFHDTQALPTHLITCEHVPR (UniProt Q53GL7) | 0.00978 | -0.372 |
| PARP10_Q53GL7_898_RPVEQVLYHGTTAPAVPDICAHGFNR (UniProt Q53GL7) | 0.225 | 0.209 |
| OTUB1_Q96FW1_91_KTRPDGNCFYR (UniProt Q96FW1) | -0.294 | -0.907 |
| OSBPL1A_Q9BXW6_412_ETCVALTDCLNLFTK (UniProt Q9BXW6) | 0.181 | 0.0122 |
| OSTC_Q9NRP0_14_VPFLVLECPNLK (UniProt Q9NRP0) | 0.025 | -0.0744 |
| PA2G4_Q9UQ80_87_KGIAFPTSISVNNCVCHFSPLK (UniProt Q9UQ80) | 0.178 | -0.349 |
| ORC3_Q9UBD5_158_LISQLMDCCVDIK (UniProt Q9UBD5) | -0.101 | -0.953 |
| PARN_O95453_169_CPVTIPEDQK (UniProt O95453) | -0.211 | -0.153 |

Single records, as listed above. Order of values: probe-labelled cysteine peptide fold change (10 µM) | probe-labelled cysteine peptide fold change (50 µM)
ORC3_Q9UBD5_158_LISQLMDCCVDIK (UniProt Q9UBD5) reads -0.101 | -0.953
PA2G4_Q9UQ80_296_MGVVECAKHELLQPFNVLYEK (UniProt Q9UQ80) reads -0.532 | -0.895

(cont.)

| Target | probe-labelled cysteine peptide fold change (10 µM) | probe-labelled cysteine peptide fold change (50 µM) |
| --- | --- | --- |
| ORC1_Q13415_506_LHVSAVPESLPCR (UniProt Q13415) | 0.0177 | 0.102 |
| PAPOLA_P51003_293_QPEECNLNLPVWDPR (UniProt P51003) | -0.15 | 0.328 |
| OSBPL5_Q9H0X9_14_FSLCPPSSTPQK (UniProt Q9H0X9) | -0.292 | 0.0347 |
| OSBPL1A_Q9BXW6_303_CFDDTIHGFR (UniProt Q9BXW6) | -0.154 | 0.0612 |
| PACSIN2_Q9UNF0_163_AHHAACK (UniProt Q9UNF0) | 0.123 | -0.0694 |
| OPLAH_O14841_408_LLPASFPCIFGPGENQPLSPEASRK (UniProt O14841) | -0.098 | 0.0583 |
| PALD1_Q9ULE6_617_ACPGLTYHR (UniProt Q9ULE6) | 0.0363 | 0.0663 |
| PAFAH1B1_P43034_184_LWDFQGFECIR (UniProt P43034) | 0.175 | -0.0423 |
| OSGEP_Q9NPF4_265_AMAHCGSQEALIVGGVGCNVR (UniProt Q9NPF4) | 0.0586 | 0.134 |
| PARP14_Q460N5_42_RSGGGECEVR (UniProt Q460N5) | -0.0775 | 0.0168 |
| OTUD4_Q01804_903_DCGSVSTVDEFPEAR (UniProt Q01804) | -0.343 | -0.257 |
| PAK4_O96013_462_LSDFGFCAQVSK (UniProt O96013) | 0.0919 | 0.124 |
| PADI2_Q9Y2J8_629_GLLEPLGLECTFIDDISAYHK (UniProt Q9Y2J8) | 0.0564 | -0.0414 |
| OSBPL2_Q9H1P3_273_CVLHFKPCGLFGK (UniProt Q9H1P3) | 0.104 | -0.02 |
| OSBPL2_Q9H1P3_266_CVLHFKPCGLFGK (UniProt Q9H1P3) | -0.0954 | -0.115 |
| OSBPL1A_Q9BXW6_171+182_TTELTALLNRPNPPDVNCSDQLGNTPLHCAAYR (UniProt Q9BXW6) | -0.00673 | -0.142 |
| OTULIN_Q96BN8_347_VCEETSL (UniProt Q96BN8) | -0.398 | -0.113 |
| PARP14_Q460N5_849_AAGPELQADCDQIVKR (UniProt Q460N5) | -0.298 | -0.644 |
